Assay results published in PubChem BioAssay AID540256 (National Center for Advancing Translational Sciences (NCATS), 2011).
About 3,700 (1.2%) of roughly 300,000 compounds were called active. Inconclusive means that the source gave no clear call. Such entries were picked first, then a sample of the others. Calls come from the whole dose curve; tested in HEK293 cells. Potencies of inconclusive entries are doubtful fits and often do not repeat. Where a SMILES comes first, the peptide text is derived from it. [ ]: non-standard residue; d: D form. ξ: configuration not given here. ξLac(3-iPr) = CC(C)CC(O)C(=O)O; NMeV = CN[CH](C(=O)O)C(C)C; NMeA = CN[CH](C)C(=O)O; βAla = NCCC(=O)O

assay: qHTS for Inhibitors of binding or entry into cells for Lassa Virus; conditions: Lassa virus pseudotype entry inhibition, cell reporter; activity change, negative = inhibition: at 37.9 µM (top of the series) unless noted; note: nearly all actives have a fitted effect of over 50% in size
% is set by controls: 0 for no effect and ±100 for the full control effect; potency is the fitted concentration of half-maximal effect.

| Structure (SMILES) | activity change, negative = inhibition | Potency |
| --- | --- | --- |
| CS(=O)(=O)NCc1ccc(C(=O)NCCOc2ccccc2)cc1 | inactive: -16.8% | – |
| Cc1cc2c(nc1C)CCCCN2C[C@H](C)ON=C1[C@H]2CCn3c(=O)n(-c4ccccc4)c(=O)n3[C@@H]2[C@H](O)[C@@H]2O[C@H]12 | – | inconclusive: 0.0841 µM [activator, full curve, poor fit] |
| CCN(CC)CCCNC(=O)CNC(=O)c1nn(-c2ccc(OC)cc2)c(=O)c2ccccc12 | – | inconclusive: 14.1 µM [inhibitor, single point] |
| Cc1[nH]c2ccccc2c1C1(O)C(=O)N(Cc2ccc(Cl)cc2)c2ccccc21 (stereo unspecified) | – | inconclusive: 3.55 µM [inhibitor, partial curve, poor fit] |
| Cc1cc2c(c(/C=C/C(=O)c3ccccc3)c1)OC1(C=C2)Oc2ccccc2C(=O)N1C (stereo unspecified) | – | inconclusive: 22.4 µM [inhibitor, partial curve, poor fit] |
| O=C(Nc1cccc(S(=O)(=O)N2CCCCCC2)c1)c1ccc2c(c1)OCO2 | – | inconclusive: 14.1 µM [inhibitor, partial curve, poor fit] |
| CCCc1nnc(NC(=O)CCC(=O)N2CCN(CCOc3ccc(C)cc3)CC2)s1 | inactive: -10.6% | – |
| COc1ccc(-c2nc3ccccc3c(C(=O)Nc3ccc(S(=O)(=O)Nc4cc(C)on4)cc3)c2C)cc1 | inactive: -26.5% | – |
| Cc1ccc(OCC(O)CNCc2ccccc2)cc1C (stereo unspecified) | – | inconclusive: 8.91 µM [activator, partial curve, poor fit] |
| C/C(=N\N1CCN(Cc2ccccc2Cl)CC1)c1ccc([N+](=O)[O-])cc1 | – | inconclusive: 15.8 µM [inhibitor, partial curve, poor fit] |
| S=c1[nH]nc(CN2CCCCC2)n1Cc1ccccc1 | – | inconclusive: 1.12 µM [inhibitor, full curve, poor fit] |
| CCOC(=O)c1cc2c(=O)n3ccccc3nc2n(CC2CCCO2)c1=NC(=O)c1cc(C)cc(C)c1 (stereo unspecified) | – | inconclusive: 2.24 µM [inhibitor, full curve, poor fit] |
| COC(=O)c1ccc(NC(=O)C2CCN(S(=O)(=O)c3ccc4c(c3)CCCN4C(C)=O)CC2)cc1 | inactive: -13% [at 46.1 µM] | – |
| O=C(COC(=O)CC1c2ccccc2CCN1S(=O)(=O)c1ccccc1)Nc1ccccc1 (stereo unspecified) | – | inconclusive: 12.6 µM [inhibitor, partial curve, poor fit] |
| CCc1nnc2n1N(C(C)=O)C(c1ccc(C(C)(C)C)cc1)=C(C(C)=O)S2 | – | active: 11.2 µM |
| Cc1ccc(CCC(=O)Nc2ccc(S(N)(=O)=O)cc2)o1 | inactive: -6.47% | – |
| COc1cc(C=C2C(=O)OC(C)(C)OC2=O)cc(Cl)c1OCC(=O)Nc1ccccc1 | inactive: -1.76% | – |
| O=S(=O)(c1cccc(Cl)c1)c1nnn2c1nc(NC1CCCC1)c1sccc12 | inactive: -0.0648% [at 46.1 µM] | – |
| CCC(=O)Nc1ccccc1C(=O)OC(c1ccccc1)c1ccccc1 | inactive: -27.1% | – |
| CS(=O)(=O)Oc1ccc2c(c1)O/C(=C\C=C\c1ccccc1)C2=O | – | inconclusive: 2.82 µM [inhibitor, single point] |
| Cc1ccc(NC(=O)CSc2nnc(C3CC3)n2CC2CCCO2)c(C)c1 (stereo unspecified) | inactive: 1.92% [at 46.1 µM] | – |
| COc1cccc(N2CCN(C(=O)c3nc(-c4ccc(Cl)cc4)n4c3CCCCC4)CC2)c1 | – | inconclusive: 35.5 µM [inhibitor, single point] |

As a working copy, two of the compounds above.

| Structure (SMILES) | activity change, negative = inhibition | Potency |
| --- | --- | --- |
| S=c1[nH]nc(CN2CCCCC2)n1Cc1ccccc1 | – | inconclusive: 1.12 µM [inhibitor, full curve, poor fit] |
| CCOC(=O)c1cc2c(=O)n3ccccc3nc2n(CC2CCCO2)c1=NC(=O)c1cc(C)cc(C)c1 (stereo unspecified) | – | inconclusive: 2.24 µM [inhibitor, full curve, poor fit] |

(more compounds)

| Structure (SMILES) | activity change, negative = inhibition | Potency |
| --- | --- | --- |
| COCCn1c(SCC(=O)c2c[nH]c3ccccc23)nc2cc(C(=O)NCC(C)C)ccc2c1=O | – | inconclusive: 3.16 µM [activator, full curve] |
| OC(CCN1CCOCC1)(c1ccc(Cl)cc1)C1CCCCC1 (stereo unspecified) | – | inconclusive: 35.5 µM [inhibitor, single point] |
| Cc1nnsc1C(=O)Nc1ccc(S(=O)(=O)N2CCC(C)CC2)cc1 | – | inconclusive: 0.562 µM [inhibitor, full curve, poor fit] |
| O=C(COc1ccc2ccccc2c1Br)NCc1ccccn1 | inactive: 0.88% | – |
| Cc1ccc(O)c(NC(=O)c2nc3nc(C)cc(C(F)F)n3n2)c1 | – | inconclusive: 11.2 µM [activator, single point] |
| COc1ccc(CCC(C)NCC2CCCCC2)cc1 (stereo unspecified) | – | inconclusive: 31.6 µM [inhibitor, partial curve, poor fit] |
| Cc1cccn2c(CNC3CCCc4ccccc43)c(C(=O)N3CCCCC3)nc12 (stereo unspecified) | – | inconclusive: 35.5 µM [inhibitor, single point] |
| Cc1cccc(-c2[nH]c(C(C)(C)C)nc2-c2ccc3nccnc3c2)n1 | – | inconclusive: 29.1 µM [inhibitor, single point] |
| Cc1ccc(/C=C/C(=O)NC2=NCCS2)cc1 | – | active: 1.58 µM |
| COc1ccc(NC2=C(Cl)C(=O)N(CCc3ccccc3)C2=O)cc1 | inactive: 15.7% | – |
| COC(=O)c1sc2nc(N)c(C#N)cc2c1N | – | inconclusive: 0.58 µM [activator, partial curve] |
| COc1ccc(NC(=O)c2oc3ccccc3c2NC(=O)c2cc(C)cc(C)c2)c(OC)c1 | inactive: 6.82% [at 46.1 µM] | – |
| Cc1ncc([N+](=O)[O-])n1CCOC(=O)NC(NCc1ccccc1Cl)C(Cl)(Cl)Cl (stereo unspecified) | – | inconclusive: 11.2 µM [inhibitor, partial curve, poor fit] |
| COC(=O)C1C(=O)C2=C(CC1C)NC(C)=C(C(=O)OC1CCCCC1)C2c1ccc(N(C)C)cc1 (stereo unspecified) | – | inconclusive: 3.98 µM [inhibitor, single point] |
| Cc1cc2oc(C(=O)N(Cc3ccc(N(C)C)cc3)CC3CCCO3)c(C)c2cc1Cl (stereo unspecified) | – | inconclusive: 7.08 µM [inhibitor, partial curve, poor fit] |
| CCC(C)C1NC(=O)C2CCCN2C(=O)C(CC(C)C)OC(=O)CCNC(=O)C(C)N(C)C(=O)C(C(C)C)N(C)C1=O (stereo unspecified) (cyclo([ξLac(3-iPr)]PI[NMeV][NMeA][βAla]); configuration not given here) | – | active: 3.16 µM |
| CC(C)(C)n1nnnc1C(c1cccnc1)N(Cc1ccccc1)Cc1cccs1 (stereo unspecified) | – | inconclusive: 35.5 µM [inhibitor, single point] |
| CN1CCN(C2=C(Cl)C(=O)N(c3cccc(Cl)c3)C2=O)CC1 | inactive: -0.0038% | – |
| CCCCCn1c(CN2CCN(C(=O)OCC)CC2)nc2c1c(=O)n(C)c(=O)n2C | – | inconclusive: 18.3 µM [inhibitor, single point] |
| N#Cc1ccccc1OCC(=O)Nc1cccc(S(=O)(=O)N2CCCCCC2)c1 | – | inconclusive: 11.2 µM [inhibitor, partial curve, poor fit] |
| CCCSc1nc2sc3c(c2c(=O)n1CC)CC(C)(C)OC3 | – | inconclusive: 5.8 µM [inhibitor, partial curve, poor fit] |
| CCc1ccc(N2CC(C(=O)Nc3ccc(S(=O)(=O)N4CCOCC4)cc3)CC2=O)cc1 (stereo unspecified) | inactive: -28.6% | – |

| Structure (SMILES) | activity change, negative = inhibition | Potency |
| --- | --- | --- |
| CC1(C)C(=O)N(c2ccccc2)C1c1ccccc1O (stereo unspecified) | – | inconclusive: 35.5 µM [inhibitor, single point] |
| Cc1ccc(F)cc1NC(=O)c1cccc(N(C)C)c1 | – | inconclusive: 29.1 µM [activator, single point] |
| COc1ccccc1N1CCN(C(=O)c2cccc(N3C(=O)NC4CC3(C)Oc3ccccc34)c2)CC1 (stereo unspecified) | inactive: -21.7% | – |
| C[N+]1(CCOS(=O)C23CC4CC(CC(C4)C2)C3)CCOCC1 (stereo unspecified) | – | inconclusive: 6.31 µM [activator, single point] |
| COc1cccc(/C(O)=C2/C(=O)C(=O)N(c3cc(C)on3)C2c2cccs2)c1 (stereo unspecified) | inactive: 0.0336% | – |
| CCC(c1nnnn1C1CCCC1)N(Cc1cccs1)Cc1cc2cc(C)ccc2[nH]c1=O (stereo unspecified) | – | inconclusive: 12.6 µM [inhibitor, partial curve, poor fit] |
| O=C(CCSc1ccccn1)Nc1ccc(Br)cc1 | – | inconclusive: 1.12 µM [activator, single point] |
| O=C(NC(=S)NCCc1ccccn1)c1ccccc1 | – | inconclusive: 20 µM [activator, single point] |
| COc1ccccc1CN(C)S(=O)(=O)c1cccs1 | inactive: 5.12% [at 46.1 µM] | – |
| COc1ccc(NC(=O)C2CCN(C(=O)c3sc4nc[nH]c(=O)c4c3C)CC2)cc1Cl | inactive: 28.6% [at 46.1 µM] | – |
| C/C(=N\NC(=O)COc1ccc(C(C)(C)C)cc1)c1ccc2c(c1)OCCO2 | – | inconclusive: 11.2 µM [inhibitor, partial curve] |
| C=CCNC(=O)c1ccccc1NC(=O)C1CC(=O)N(C(C)C)C1 (stereo unspecified) | inactive: 5.48% | – |
| CCS(=O)(=O)N1Cc2ccccc2CC1C(=O)NCCc1c[nH]c2ccccc12 (stereo unspecified) | – | inconclusive: 2 µM [inhibitor, partial curve, poor fit] |
| C(=N/N1CCN(c2ccccc2)CC1)/c1ccncc1 | – | inconclusive: 35.5 µM [inhibitor, partial curve, poor fit] |
| CCN(CC)S(=O)(=O)c1cccc(-c2nnc(SCc3nnc(-c4cccs4)o3)n2N)c1 | – | inconclusive: 29.1 µM [inhibitor, single point] |
| CCOc1ccccc1NC(=O)CN(Cc1ccccc1)S(C)(=O)=O | – | inconclusive: 2.06 µM [inhibitor, partial curve, poor fit] |
| CCOc1cc(S(=O)(=O)N2CCN(Cc3ccccc3)CC2)ccc1Br | inactive: -27.6% | – |
| Nc1nc(-c2ccco2)nn1C(=O)CCc1ccccc1 | inactive: 7.24% | – |
| Cc1ccccc1/C=C/C1=NCCN1 | – | inconclusive: 10.3 µM [inhibitor, partial curve] |
| C=CCN(c1ccc(C(=O)OC)cc1)S(=O)(=O)c1ccccc1 | inactive: 2.91% | – |
| COc1ccc(N2CCN(C(=O)CCCn3c(=O)[nH]c4cc(Cl)ccc4c3=O)CC2)cc1 | – | inconclusive: 20.6 µM [inhibitor, partial curve] |
| CCn1c(NCc2cc(Br)ccc2NS(=O)(=O)c2ccc(C)cc2)nc2ccccc21 | – | inconclusive: 11.2 µM [inhibitor, partial curve, poor fit] |

Among those listed so far, 12 have a Cl atom.

| Structure (SMILES) | activity change, negative = inhibition | Potency |
| --- | --- | --- |
| Cc1[nH]c2ccccc2c1C1(O)C(=O)N(Cc2ccc(Cl)cc2)c2ccccc21 (stereo unspecified) | – | inconclusive: 3.55 µM [inhibitor, partial curve, poor fit] |
| C/C(=N\N1CCN(Cc2ccccc2Cl)CC1)c1ccc([N+](=O)[O-])cc1 | – | inconclusive: 15.8 µM [inhibitor, partial curve, poor fit] |
| COc1cc(C=C2C(=O)OC(C)(C)OC2=O)cc(Cl)c1OCC(=O)Nc1ccccc1 | inactive: -1.76% | – |
| O=S(=O)(c1cccc(Cl)c1)c1nnn2c1nc(NC1CCCC1)c1sccc12 | inactive: -0.0648% [at 46.1 µM] | – |
| COc1cccc(N2CCN(C(=O)c3nc(-c4ccc(Cl)cc4)n4c3CCCCC4)CC2)c1 | – | inconclusive: 35.5 µM [inhibitor, single point] |
| OC(CCN1CCOCC1)(c1ccc(Cl)cc1)C1CCCCC1 (stereo unspecified) | – | inconclusive: 35.5 µM [inhibitor, single point] |
| COc1ccc(NC2=C(Cl)C(=O)N(CCc3ccccc3)C2=O)cc1 | inactive: 15.7% | – |
| Cc1ncc([N+](=O)[O-])n1CCOC(=O)NC(NCc1ccccc1Cl)C(Cl)(Cl)Cl (stereo unspecified) | – | inconclusive: 11.2 µM [inhibitor, partial curve, poor fit] |
| Cc1cc2oc(C(=O)N(Cc3ccc(N(C)C)cc3)CC3CCCO3)c(C)c2cc1Cl (stereo unspecified) | – | inconclusive: 7.08 µM [inhibitor, partial curve, poor fit] |
| CN1CCN(C2=C(Cl)C(=O)N(c3cccc(Cl)c3)C2=O)CC1 | inactive: -0.0038% | – |
| COc1ccc(NC(=O)C2CCN(C(=O)c3sc4nc[nH]c(=O)c4c3C)CC2)cc1Cl | inactive: 28.6% [at 46.1 µM] | – |
| COc1ccc(N2CCN(C(=O)CCCn3c(=O)[nH]c4cc(Cl)ccc4c3=O)CC2)cc1 | – | inconclusive: 20.6 µM [inhibitor, partial curve] |
